Assay results: paper PMC3077365

Molecular target: LRIM1/APL1C complex, His-tagged (wild type) (Anopheles gambiae)
Assay: pull-down; 200 uL each of Sf9 conditioned media (HSV-tagged TEP; His-tagged LRIM1 and/or APL1C alleles) mixed, 0.1% triton X-100, Talon resin, 3 h at room temperature, washed in PBS with 0.1% triton X-100; His-bound material probed with anti-HSV

B1: TEP1, full-length, HSV-tagged (protein, UniProt Q9GYW4 22-1340)
chain: LLVVGPKFIRANQEYTLVISNFNSQLSKVDLLLKLEGETDNGLSVLNVTKMVDVRRNMNRMINFNMPEELTAGNYKITIDGQRGFSFHKEAELVYLSKSISGLIQVDKPVFKPGDTVNFRVILLDTELKPPARVKSVYVTIRDPQRNVIRKWSTAKLYAGVFESDLQIVPTPMLGVWNISVEVEGEELVSKTFEVKEYVLSTFDVQVMPSVIPLEEHQAVNLTIEANYHFGKPVQGVAKVELYLDDDKLNQKKELTVYGKGQVELRFDNFAMDADQQDVRVKVSFIEQYTNRTVVKQSQITVYRYAYRVELIKESPQFRPGLPFKCALQFTHHDGTPAKGITGKVEVSDVGFETTTTSDNDGLIKLELQPSEGTEQLGINFNAVDGFFFYEDVNKVETVTDAYIKLELKSPIKRNKLMRFMVTCTERMTFFVYYVMSKGNIIDAGFMRPNKQTKYLLQLNATEKMIPKAKILIATVAGRTVVYDYADLDFQELRNNFDLSIDEQEIKPGRQIELSMSGRPGAYVGLAAYDKALLLFNKNHDLFWEDIGQVFDGFHAINENEFDIFHSLGLFARTLDDILFDSANEKTGRNALQSGKPIGKLVSYRTNFQESWLWKNVSIGRSGSRKLIEVVPDTTTSWYLTGFSIDPVYGLGIIKKPIQFTTVQPFYIVENLPYSIKRGEAVVLQFTLFNNLGAEYIADVTLYNVANQTEFVGRPDTDLSYTKSVSVPPKVGVPISFLIKARKLGEMAVRVKASIMLGHETDALEKVIRVMPESLAQPKMDTSFFCFDDYKNQTFPFNLDINKKADNGSKKIEFRLNPNLLTMVIKNLDNLLAVPTGCGEQNMVKFVPNILVLDYLYATGSKEQHLIDKATNLLRQGYQNQMRYRQTDGSFGVWEKSGSSVFLTAFVATSMQTASKYMNDIDAAMVEKALDWLASKQHSSGRFDETGKVWHKDMQGGLRNGVALTSYVLTALLENDIAKVKHAVVIQNGMNYLSNQLAFINNPYDLSIATYAMMLNGHTMKKEALDKLIDMSISDNNKKERYWGTTNQIETTAYALLSFVMAEKYLDGIPVMNWLVNQRYVTGSFPRTQDTFVGLKALTKLAEKISPSRNDYTVQLKYKKNTKYFNINSEQIDVQNFLEIPEDTKKLEINVGGIGFGLLEVIYQFDLNLVNFEHRFKLDLEKQNTGSDYELRLRVCANYIPELTDSQSNMALIEVTLPSGYVVDRNPISEQTTVNPIQNMEIRYGGTSVVLYYYKMGTERNCFTVTAYRRFKVALKRPAYVVVYDYYNTNLNAIKVYEVDKQNVCEICEEEDCPAECKK
- binding: binds weakly

No constants are given. Whether binding was seen depends on the method and setting. In cells and extracts the contact can be indirect. A result given as binding can be weak or reduced; the word gives no strength. Tags and fused reporters may be left off the sequences shown.
